The values below come from paper PMC12040169 (PLOS Biology, 2025).

Each structure is given as a SMILES string. The list shows a part of the results.

The subject of this test is T1, CTL2-GFP (C. trachomatis L2/434/Bu, GFP-expressing).
T1 construct: L2/434/Bu, GFP-expressing
On the set-up: species or system HeLa; Intracellular C. trachomatis growth in HeLa cells, bulk GFP fluorescence relative to DMSO. Conditions: bulk GFP, single well; 28.5 h, 10 µM; inhibitor.
For `O=[N+]([O-])c1ccc(NCCNC(=S)Nc2ccc(Cl)cc2)nc1` [CBK263594], the “% of control remaining” value came out at 92.2997%.

As to `CCOc1ccc(NC(=O)c2ccc(CN3CCOCC3)cc2)cc1` [CBK033557], the “% of control remaining” value is reported as 97.0558%.

In the case of `O=C(O)c1ccc(OCc2n[nH]c(=S)n2-c2ccc(Cl)cc2)cc1` [CBK014317], the “% of control remaining” value is reported as 105.438%.

As for `O=C(c1cccs1)N1CCC(c2onc3c2CCCC3)CC1` [CBK285181], the “% of control remaining” value is reported as 104.903%.

For the compound `O=C(c1ccco1)c1cnc2ccccn2c1=O` [CBK010791], the “% of control remaining” value is 115.605%.

On to `CC(C)NS(=O)(=O)c1ccc(NC(=O)COc2ccc3ccccc3c2Br)cc1` [CBK267920], for which the “% of control remaining” value is recorded as 89.2123%.

Take `Cc1cccc(OCCSc2nc3c(N)ncn(Cc4ccccc4)c-3n2)c1` [CBK266843]: the “% of control remaining” value was determined as 156.67%.

With `N#Cc1cccc(C(=O)N2CCC3(CCN(C(=O)c4cc(F)c(F)cc4F)C3)C2)c1` (centres unmarked) [CBK131387], the “% of control remaining” value is reported as 118.561%.

As for `COc1cc(Nc2nc(-c3cccc(OC(F)(F)F)c3)cn3ccnc23)cc(OC)c1OC` [CBK038036], the “% of control remaining” value is recorded as 84.8739%.

For the compound `CN1CCN(CC(CC(=O)Nc2c(F)cccc2F)C(=O)O)CC1` (centres unmarked) [CBK286867], the “% of control remaining” value worked out at 124.512%.

With `CCOC(=O)NC(NCc1ccco1)(C(F)(F)F)C(F)(F)F` [CBK057654], the “% of control remaining” value turned out to be 127.759%.

For the compound `O=C1C2(Cc3ccccc3)CN3CN(C2)CC1(Cc1ccccc1)C3` [CBK261341], the “% of control remaining” value worked out at 109.661%.

With `Cc1cnn(CC2CC2)c1NC(=O)Cc1csc(N2CCCC2=O)n1` [CBK304940], the “% of control remaining” value is listed as 136.449%.

On to `O=C1C[C@@H]2CCN(C(=O)COc3ccccc3)C[C@@H]2CCN1Cc1cccnc1` [CBK288793], for which the “% of control remaining” value came out at 137.778%.

In the case of `CC(CC(=O)O)n1nnc2ccccc21` (centres unmarked) [CBK264139], the “% of control remaining” value stood at 112.099%.

`CCN1CCC(NCc2ccc(OCC(N)=O)cc2)CC1` [CBK306106]: the “% of control remaining” value is reported as 113.573%.

Take `Cc1cc(C)nc(NCCC(=O)O)n1` [CBK270154]: the “% of control remaining” value is recorded as 129.327%.

Regarding `Cc1nc(CCNCc2c(C(C)C)nn(C)c2N(C)C)cs1` [CBK304002], the “% of control remaining” value is reported as 91.3432%.

On to `CN(CC(=O)C(C#N)c1ccccc1)Cc1ccccc1` (centres unmarked) [CBK269432], for which the “% of control remaining” value is on record as 114.461%.

As for `CC(C)NC(=O)CN1C(=O)N2CCCN=C2c2ccc(Cl)cc21` [CBK284390], the “% of control remaining” value stood at 113.618%.

Regarding `CC(C)c1ccc(S(=O)(=O)NCCC(C)(C)C)cc1` [CBK043640], the “% of control remaining” value came to 107.423%.

On to `O=C(CN1CCC(c2cccc(Cc3cccc(F)c3)n2)CC1)Nc1nccs1` [CBK286090], for which the “% of control remaining” value was found to be 102.359%.

For the compound `COCCn1c(CO)nnc1[C@H]1C[C@@H](NC(=O)c2cc(F)ccc2F)C1` [CBK307032], the “% of control remaining” value turned out to be 182.519%.
